No constants are given. Whether binding was seen depends on the method and setting. Some results given as binding are weak or reduced against the parent protein; the word gives no strength.
Biological target: T1, FAM-aidDAPK-pS318 peptide (FAM-RRRWKLpSFSIV) (human)
T1 sequence (peptide, FAM on the N-terminus; phosphoserine at 318): RRRWKLSFSIV
Experiment: fluorescence polarisation; 14-3-3γ (160 µM and binary dilution series) incubated 1 h with 50 nM FAM-labelled peptide; 20 mM HEPES-NaOH pH 7.4, 150 mM NaCl, 0.1% Tween 20, 0.1% BSA; one-site-binding model; apparent KD; both purified

B1: Human 14-3-3γ WT (protein, UniProt P61981 1-247)
chain: MVDREQLVQKARLAEQAERYDDMAAAMKNVTELNEPLSNEERNLLSVAYKNVVGARRSSWRVISSIEQKTSADGNEKKIEMVRAYREKIEKELEAVCQDVLSLLDNYLIKNCSETQYESKVFYLKMKGDYYRYLAEVATGEKRATVVESSEKAYSEAHEISKEHMQPTHPIRLGLALNYSVFYYEIQNAPEQACHLAKTAFDDAIAELDTLNEDSYKDSTLIMQLLRDNLTLWTSDQQDDDGGEGNN
  binding: binds weakly

Source: PMC8376927
